Results from paper PMC3581582.
These are yes or no findings as the source states them, for the method shown. Binding seen in cells or lysates may run through a third protein. Binding can be weak; no strength is given.

Assays:
[1] = biological target: TbMCM-BP-myc (Trypanosoma brucei) (UniProt Q57V33); test: co-IP; reciprocal co-IPs from lysates of BF T. brucei expressing epitope-tagged proteins from their endogenous loci; lysis buffer 25 mM Tris-HCl pH 8.0, 1 mM EDTA, 0.5% NP-40, 10% glycerol, 1 mM PMSF, 1 mM DTT; IP and immunoblot with anti-myc or anti-flag
[2] = biological target: MCM5-flag (Trypanosoma brucei) (UniProt Q385L1); test: as above

Substance | binding [1] | binding [2]
MCM5-flag (from UniProt Q385L1) | binds | –
TbMCM-BP-myc (from UniProt Q57V33) | – | binds
